Values of other authors as cited in patent US20100135908A1, “Delivery devices for modulating inflammation” (Searete LLC, a limited liability corporation of the state …, priority 2008, published 2010).
For at least one compound, name, drawing or mass did not settle the structure.

CCN(CC)C(=S)S [diethyldithiocarbamate]
toxic: toxicity to Giardia (Giardia) | toxicity to malarial parasites (malarial parasites) | toxicity to Leishmania (Leishmania)
